Test systems include PFKL (human); PGAM1 (human); PGDS (human); PGLS (human); PGM1 (human); PGM2L1 (human); PGM3 (human); PGRMC1 (human); PHF20L1 (human); PHGDH (human); PI15 (human); PIGA (human); PIM2 (human); PIPOX (human); PIR (human); PITPNC1 (human); PKIB (human); PKNOX1 (human); PLA2G10 (human).
Experiment in all cases: protein microarray (ProtoArray v5.0), streptavidin-Alexa Fluor 647
Common to all, as to conditions: 3'-biotin; 20 mM Tris (pH 7.5), 5 mM MgCl2, 100 mM KCl, 0.1% Tween-20, A/T-rich and random oligonucleotide blockers; temperature not stated; high values mean tight binding

The target in a further test is T1, PHF20L1 (UniProt A8MW92).
T1 sequence: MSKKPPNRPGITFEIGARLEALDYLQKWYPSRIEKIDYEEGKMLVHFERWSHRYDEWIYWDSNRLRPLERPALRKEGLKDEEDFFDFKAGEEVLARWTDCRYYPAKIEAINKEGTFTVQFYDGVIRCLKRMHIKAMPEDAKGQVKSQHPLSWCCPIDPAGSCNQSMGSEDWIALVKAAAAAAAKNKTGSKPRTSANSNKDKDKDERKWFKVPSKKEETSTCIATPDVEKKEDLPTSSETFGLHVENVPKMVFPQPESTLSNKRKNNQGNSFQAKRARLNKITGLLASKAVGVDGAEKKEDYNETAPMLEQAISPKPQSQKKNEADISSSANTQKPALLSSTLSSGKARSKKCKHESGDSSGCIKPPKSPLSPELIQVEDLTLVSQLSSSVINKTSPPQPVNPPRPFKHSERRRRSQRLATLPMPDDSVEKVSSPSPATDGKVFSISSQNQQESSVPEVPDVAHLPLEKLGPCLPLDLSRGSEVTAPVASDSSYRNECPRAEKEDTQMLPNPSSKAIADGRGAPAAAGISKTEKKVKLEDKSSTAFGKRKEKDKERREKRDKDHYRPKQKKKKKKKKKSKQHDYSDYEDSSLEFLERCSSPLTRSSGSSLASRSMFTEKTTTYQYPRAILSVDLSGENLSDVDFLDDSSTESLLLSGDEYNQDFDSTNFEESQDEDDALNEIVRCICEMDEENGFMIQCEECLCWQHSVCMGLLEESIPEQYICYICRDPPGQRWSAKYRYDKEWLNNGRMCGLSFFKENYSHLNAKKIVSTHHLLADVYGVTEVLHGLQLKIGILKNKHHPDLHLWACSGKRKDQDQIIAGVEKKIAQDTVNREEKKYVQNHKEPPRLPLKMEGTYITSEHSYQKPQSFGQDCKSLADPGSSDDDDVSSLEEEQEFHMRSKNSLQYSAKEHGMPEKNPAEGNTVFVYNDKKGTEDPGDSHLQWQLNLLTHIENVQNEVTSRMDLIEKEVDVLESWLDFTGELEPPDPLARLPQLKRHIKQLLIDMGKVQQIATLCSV

Some of the results follow. For some assays here: The exact form of the protein is not confirmed.

Regarding “GGGAGGCTGAGGCAGG [G4-1 biotinylated (PQS2)]”, the binding signal was -0.317 z-score with PFKL (human); -0.338 z-score in the test with PGAM1 (human); -0.317 z-score in the test with PGDS (human); -0.324 z-score with PGLS (human); -0.339 z-score in the test on PGM1 (human); -0.352 z-score in the test on PGM2L1 (human). Besides, the binding signal in the test on PGM3 (human) was -0.356 z-score; in the test on PGRMC1 (human), -0.296 z-score; with PHF20L1, 5.84 z-score; with PHF20L1 (human) it was -0.306 z-score; with PHGDH (human), -0.327 z-score; in the test with PI15 (human) it was -0.309 z-score. In addition, the binding signal with PIGA (human) is -0.318 z-score; in the test with PIM2 (human), -0.345 z-score; with PIPOX (human), -0.33 z-score; with PIR (human), -0.312 z-score; with PITPNC1 (human) it was -0.344 z-score; in the test on PKIB (human), -0.345 z-score. For the same sequence, the values for the binding signal with PKNOX1 (human) and with PLA2G10 (human) were -0.339 z-score and -0.276 z-score, respectively.

The record behind these values is article PMC5996148.
